# Measurements taken from PubChem BioAssay AID2685 (National Center for Advancing Translational Sciences (NCATS), 2010).
# This is one part of the list. Further columns of the screen follow, without active or inactive calls. Compounds called inactive in the main read-out are mostly missing here. Potencies come from curve fits of mixed quality, noted in brackets.
# Assay: qHTS Assay for Lipid Storage Modulators in Drosophila S3 Cells;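 as to cell number change: cells counted by Cell Tracker Red CMTPX staining in the red channel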
# Settings: BODIPY lipid droplet fluorescence, 18-24 h; for cell number change: measured here: cell count max response, cells fed with added oleic acid
# Procedure, shortened: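 Laser-scanning cytometry quantifies lipid droplet accumulation (500–530 nm total intensity; droplet/cell object ratio) in oleic acid-fed (400 uM added) Drosophila S3 cells treated with a concentration series. 20 uM Triacsin C defined 100% inhibition.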
# [1] = measured here: lipid fluorescence (Fed channel) AC50, cells fed with added oleic acid
# [2] = measured here: cell number channel AC50, cells fed with added oleic acid
SMILES,AC50 [1],cell number change,AC50 [2]
Cc1nc(NCc2ccco2)[nH]c(=O)c1CCC(C)C,"0.13 µM [falling, full curve, poor fit]",–,–
COC(=O)NC1(C(F)(F)F)NC(=O)N(C2CCCCC2)C1=O (stereo unspecified),"9.2 µM [falling, partial curve, poor fit]",-5.49%,–
CCSc1nc(-c2ccc(OC)cc2)cc(-c2ccccc2)c1C#N,"18.4 µM [rising, partial curve]",29.6%,"3.66 µM [rising, full curve, poor fit]"
COC(=O)c1ccc(C(=O)OC)c(NC(=O)C2CCCO2)c1 (stereo unspecified),"0.103 µM [rising, full curve, poor fit]",-7.73%,–
Cc1cc(NC(=O)CSc2nnc(-c3cccnc3)n2N)no1,–,27.8%,–
COC(=O)c1ccc(CSc2nnc(N)s2)o1,–,-4.63%,–
Cc1ccc(S(=O)(=O)NC(=O)C2CCCCC2)cc1,"1.3 µM [rising, full curve, poor fit]",17.2%,–
CCN1CCN(c2cc(C)c3cc(NC(=S)N4CCOCC4)ccc3n2)CC1,–,-32.8%,"1.16 µM [falling, full curve]"
O=C(O)c1cc2nccc(-c3ccc(F)cc3)n2n1,"8.2 µM [falling, partial curve]",-32.2%,"5.8 µM [falling, full curve, poor fit]"
COc1ccc(CNC(=O)Cc2csc(NC(=O)Nc3ccccc3OC)n2)cc1,"2.06 µM [rising, full curve]",26.9%,–
CCOc1ccc(S(=O)(=O)Nc2cccc(C(=O)N3CCN(c4ccccc4O)CC3)c2)cc1,"0.651 µM [falling, single point]",2.54%,–
O=C(c1ccc2c(c1)N(Cc1ccc(F)cc1)CCS2)N1CCOCC1,–,-16.7%,–
Cc1ncsc1CCOC(=O)C12CC3CC(CC(C3)C1)C2,"7.31 µM [falling, partial curve, poor fit]",-0.799%,"0.0517 µM [falling, full curve, poor fit]"
CC(Sc1ncc(C#N)c(N)n1)C(=O)Nc1ccccc1 (stereo unspecified),"29.1 µM [rising, single point]",–,–
CC(=O)N1CCN(C(=O)CSc2nnc(C)n2-c2ccccc2)CC1,"29.1 µM [rising, single point]",9.93%,–
CCn1nnc(NC(=O)c2cccnc2Cl)n1,–,-104%,"29.1 µM [falling, single point]"
CN(c1cccc(Cl)c1)S(=O)(=O)c1cccc(C(=O)Nc2nc3ccccc3[nH]2)c1,"0.326 µM [rising, full curve, poor fit]",2.27%,–
COc1ccccc1N1CCN(S(=O)(=O)c2ccc3c4c(cccc24)C(=O)N3C)CC1,"0.58 µM [rising, single point]",–,–
CCOC(=O)c1cc2occc2n1CC(=O)Nc1ccc(OC)cc1OC,–,50.2%,"1.46 µM [rising, full curve]"
O=C(Nc1ccc(S(=O)(=O)N2CCCC2)cc1)c1ccc([N+](=O)[O-])cc1,"29.1 µM [falling, single point]",8.06%,–
O=C(Nc1ccnn1C1CCN(Cc2c[nH]c3ccccc23)CC1)c1ccccc1,"6.51 µM [rising, single point]",–,–

SMILES,AC50 [1],cell number change,AC50 [2]
CCOC(=O)C1(CCc2ccccc2)CCN(Cc2ccc(OC)cc2)CC1,–,-20%,–
COc1ccc(CN(Cc2cc3cc(OC)c(OC)cc3[nH]c2=O)C(=O)NC2CCCCC2)cc1,"1.3 µM [rising, full curve]",32.5%,"1.3 µM [rising, full curve]"
C/C(=N/NC(=O)c1cccs1)c1cccc(NC(=O)C2CC2)c1,–,-38.7%,"36.6 µM [falling, partial curve, poor fit]"
O=c1[nH]c(NC2CCCCC2)nnc1Cc1ccccc1,"29.1 µM [falling, single point]",-37%,"29.1 µM [falling, single point]"
CCCCOC(=O)CSc1nnc(-c2cc(OC)c(OC)c(OC)c2)o1,"29.1 µM [rising, single point]",-6.96%,–
O=C(Nc1ccc(-c2nnco2)cc1)c1ccccc1,–,0.146%,–
O=S(=O)(c1cnc(Cl)c(Cl)c1)N1CCN(c2ncccn2)CC1,–,0.661%,"6.51 µM [falling, single point]"
COc1cc(NC(=O)c2ccc3c(SCC(=O)O)c4c(nc3c2)CCC4)cc(OC)c1OC,"0.58 µM [rising, single point]",16.8%,–
COC(=O)c1ccc(CSc2cc(C)c3ccccc3n2)o1,–,38.9%,–
Cc1ccc(C(=O)OCC(=O)NCc2cccs2)cc1C,"29.1 µM [falling, single point]",22%,–
C=CCCO[C@@H]1O[C@@H](C)[C@H](O)C[C@H]1O,"6.51 µM [falling, partial curve, poor fit]",-0.241%,–
CCOC(=O)CNC(=O)c1ccccc1Br,"4.11 µM [falling, full curve, poor fit]",-8.91%,–
CC1=CN2C(=N)/C(=C/c3ccc(Sc4ccc(Cl)cc4)o3)C(=O)N=C2S1,"29.1 µM [falling, single point]",1.8%,–
S=c1[nH]nc(C2CCCCC2)n1/N=C/C(Cl)=C\c1ccccc1,–,-50%,"8.2 µM [falling, partial curve]"
O=C(CSc1nnc(CNc2ccc(Cl)cc2)o1)Nc1nc2c(s1)CCCC2,"1.3 µM [rising, full curve]",-1.12%,–
O=C(COC(=O)c1ccc2ccccc2n1)NC1CCCCC1,–,-41.9%,"29.1 µM [falling, partial curve, poor fit]"
N#Cc1ccccc1/C=N/Nc1nc(-c2ccccc2)c2cc(Br)ccc2n1,"29.1 µM [rising, single point]",146%,"29.1 µM [rising, single point]"
CCOC(=O)CSc1nc(Nc2ccc3c(c2)OCO3)c2ccccc2n1,"1.64 µM [rising, partial curve]",10.7%,–
C/C(=N/Nc1ccnc2cc(Cl)ccc12)c1ccc(O)cc1,–,-57.2%,"23.1 µM [falling, single point]"
COc1ccc(C(=O)Nc2ccccc2C(=O)N/N=C/c2ccccc2OC)cc1,"29.1 µM [rising, single point]",0.35%,–
N=c1c2c(n(Cc3ccc([N+](=O)[O-])cc3)c3c1CCC3)CCCC2,"0.461 µM [falling, partial curve, poor fit]",-0.528%,"0.461 µM [falling, partial curve, poor fit]"

# Part of the list above in order of molecular weight, low to high:
SMILES,AC50 [1],cell number change,AC50 [2]
C=CCCO[C@@H]1O[C@@H](C)[C@H](O)C[C@H]1O,"6.51 µM [falling, partial curve, poor fit]",-0.241%,–
COC(=O)c1ccc(CSc2nnc(N)s2)o1,–,-4.63%,–
Cc1nc(NCc2ccco2)[nH]c(=O)c1CCC(C)C,"0.13 µM [falling, full curve, poor fit]",–,–
Cc1ccc(S(=O)(=O)NC(=O)C2CCCCC2)cc1,"1.3 µM [rising, full curve, poor fit]",17.2%,–
O=C(COC(=O)c1ccc2ccccc2n1)NC1CCCCC1,–,-41.9%,"29.1 µM [falling, partial curve, poor fit]"
COC(=O)NC1(C(F)(F)F)NC(=O)N(C2CCCCC2)C1=O (stereo unspecified),"9.2 µM [falling, partial curve, poor fit]",-5.49%,–
S=c1[nH]nc(C2CCCCC2)n1/N=C/C(Cl)=C\c1ccccc1,–,-50%,"8.2 µM [falling, partial curve]"
CCOC(=O)c1cc2occc2n1CC(=O)Nc1ccc(OC)cc1OC,–,50.2%,"1.46 µM [rising, full curve]"
O=S(=O)(c1cnc(Cl)c(Cl)c1)N1CCN(c2ncccn2)CC1,–,0.661%,"6.51 µM [falling, single point]"
CCCCOC(=O)CSc1nnc(-c2cc(OC)c(OC)c(OC)c2)o1,"29.1 µM [rising, single point]",-6.96%,–
CCOC(=O)CSc1nc(Nc2ccc3c(c2)OCO3)c2ccccc2n1,"1.64 µM [rising, partial curve]",10.7%,–
O=C(Nc1ccnn1C1CCN(Cc2c[nH]c3ccccc23)CC1)c1ccccc1,"6.51 µM [rising, single point]",–,–
O=C(CSc1nnc(CNc2ccc(Cl)cc2)o1)Nc1nc2c(s1)CCCC2,"1.3 µM [rising, full curve]",-1.12%,–
CN(c1cccc(Cl)c1)S(=O)(=O)c1cccc(C(=O)Nc2nc3ccccc3[nH]2)c1,"0.326 µM [rising, full curve, poor fit]",2.27%,–
COc1cc(NC(=O)c2ccc3c(SCC(=O)O)c4c(nc3c2)CCC4)cc(OC)c1OC,"0.58 µM [rising, single point]",16.8%,–
COc1ccc(CN(Cc2cc3cc(OC)c(OC)cc3[nH]c2=O)C(=O)NC2CCCCC2)cc1,"1.3 µM [rising, full curve]",32.5%,"1.3 µM [rising, full curve]"
CCOc1ccc(S(=O)(=O)Nc2cccc(C(=O)N3CCN(c4ccccc4O)CC3)c2)cc1,"0.651 µM [falling, single point]",2.54%,–

# Further structures:

SMILES,AC50 [1],cell number change,AC50 [2]
Cc1ccc(S(=O)(=O)N2CCN(C(=O)N3CCOCC3)C2C(C)C)cc1 (stereo unspecified),"14.6 µM [falling, partial curve, poor fit]",-50.1%,"29.1 µM [falling, single point]"
CN1Cc2c(N3CCOCC3)nc(SCc3ccccc3)c(C#N)c2CC1(C)C,–,-32.1%,"32.6 µM [falling, single point]"
O=c1cc(N2CCN(c3ccccc3)CC2)[nH]c(=O)n1C1CCCCC1,–,-30.1%,"9.2 µM [falling, partial curve, poor fit]"
CC(C)(C)NS(=O)(=O)c1ccc(NC(=S)NC(=O)C2CCC2)cc1,–,-15.6%,–
CN1CCN(CC(=O)Nc2cccc([N+](=O)[O-])c2)CC1,"3.66 µM [falling, full curve]",-20.4%,–
Cc1cc(C)c(NC(=O)Cn2nnc(C(=O)NCc3ccc4c(c3)OCO4)c2N)c(C)c1,–,38.2%,"1.16 µM [rising, partial curve, poor fit]"
O=C1c2ccccc2C(=O)N1OCc1ccc(Cl)cc1,–,1.32%,–
CC1CCN(CC(=O)NCc2ccco2)CC1,–,21.8%,–
COC(=O)c1ccccc1NC(=O)Cc1nc(-c2ccccc2)sc1-c1ccc(C)cc1,"16.4 µM [falling, single point]",-11.8%,–
O=C(NCC1CCCO1)NC1CCCCC1 (stereo unspecified),–,36.1%,–
CC1=NN(c2ccccc2)C(=O)/C1=C\c1sccc1C,"6.51 µM [falling, single point]",-4.91%,–
Cc1ccc(OCCn2cc(/C=C/C(=O)O)c3ccccc32)cc1,"6.51 µM [falling, partial curve, poor fit]",–,–
CCC(=O)c1ccccc1OCCSc1nc(C)cc(=O)[nH]1,–,4.3%,"0.116 µM [falling, full curve, poor fit]"
CC(C)C(NC(=O)C(C)N1C(=O)c2ccccc2C1=O)c1ccccc1 (stereo unspecified),"18.4 µM [falling, single point]",-18.3%,–
CC1CCCCC1NC(=O)C1CCC(CNS(=O)(=O)c2ccccc2)CC1 (stereo unspecified),–,34.7%,"29.1 µM [rising, single point]"
CCC(CCC(=O)Nc1cccc([N+](=O)[O-])c1)C(=O)O (stereo unspecified),–,18.6%,–
CC1=C(C)CC(C(=O)Nc2nc(C)cs2)C(C(=O)O)C1 (stereo unspecified),"29.1 µM [rising, single point]",4.23%,–
O=C(Nc1ccc2c(c1)OCCO2)c1cccc(Br)c1,"7.31 µM [rising, single point]",-5.82%,–
COc1ccc(-n2ncc3c(NCc4ccc5c(c4)OCO5)ncnc32)cc1,"5.17 µM [rising, single point]",–,–
CCc1c(C)sc(NC(=O)c2ccccc2[N+](=O)[O-])c1C(N)=O,"32.6 µM [rising, single point]",-3.41%,–
CCc1ccccc1NC(=O)CNC(=O)c1n[nH]c(=O)c2ccccc12,–,-7.94%,–
